PubChem BioAssay AID1224826, NIAID | 2016

- Purpose: 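Genes that change LPS-induced Tnf promoter activity in mouse macrophages when knocked down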 (primary screen)
- System: RAW264.7 G9 macrophages from mouse bearing reporters for p65 (GFP) and the Tnf promoter (mCherry)
- Reagent: siRNA pool against mouse genes, 100 nM
- Timing: 16 h of LPS stimulation, after 2 days of siRNA transfection
- Challenge: bacterial lipopolysaccharide (Salmonella minnesota R595), 10 ng/ml
- Measured: 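Imaged Tnf reporter mCherry in nuclei, minus background, normalised per plate to the median and expressed as robust z-scores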
- Reading the numbers: Tnf reporter robust z-score: higher = stronger Tnf promoter reporter signal after LPS; Tnf reporter intensity: higher = stronger Tnf promoter reporter signal
- Rule for the call: 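a well counts as active at a score of -1.3 or below (Tlr4 knock-down control median) or above 3 (raised signal); controls and wells holding fewer than 50 cells are excluded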
- Meaning of the calls: active = Tnf reporter clearly lowered or raised; inactive = no clear change in Tnf reporter
The whole screen tested about 17,000 reagents; shown is a random part of them. Of all reagents, about 1,110 (6.6%) are marked active. 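Active means lowered or raised reporter signal; replicate intensities are raw and not normalised per plate.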 The numbers tell different reagents against one gene apart.

| gene | reagent no. | Tnf reporter robust z-score | fewer than 50 cells in well | Tnf reporter intensity, replicate 1 | Tnf reporter intensity, replicate 2 | Call |
| --- | --- | --- | --- | --- | --- | --- |
| 1700129C05Rik (GeneID 67932) | 1 | – | fewer than 50 cells per well; well left out of calls | 98.5 | 37.7 | inactive |
| Plekhb1 (GeneID 27276) | 1 | -0.34 | enough cells in well | 104 | 126 | inactive |
| Pdzk1ip1 (GeneID 67182) | 1 | -0.69 | enough cells in well | 203 | 64 | inactive |
| Incenp (GeneID 16319) | 1 | – | fewer than 50 cells per well; well left out of calls | 91.4 | 51.3 | inactive |
| Klre1 (GeneID 243655) | 1 | -0.88 | enough cells in well | 148 | 84 | inactive |
| Mrgpra3 (GeneID 233222) | 1 | 0.44 | enough cells in well | 316 | 91.2 | inactive |
| Ubtd2 (GeneID 327900) | 1 | -0.69 | enough cells in well | 110 | 133 | inactive |
| Gpr33 (GeneID 14762) | 1 | 0.79 | enough cells in well | 283 | 227 | inactive |
| Zfp790 (GeneID 233056) | 1 | 1.53 | enough cells in well | 275 | 216 | inactive |
| Stab2 (GeneID 192188) | 1 | 0.1 | enough cells in well | 113 | 93.6 | inactive |
| Gsta1 (GeneID 14857) | 1 | 1.22 | enough cells in well | 335 | 240 | inactive |
| Bltp1 (GeneID 229227) | 1 | 0.73 | enough cells in well | 312 | 138 | inactive |
| Bltp1 (GeneID 229227) | 2 | 0.86 | enough cells in well | 277 | 82.7 | inactive |

Targets above whose target name starts with B or b:
| gene | reagent no. | Tnf reporter robust z-score | fewer than 50 cells in well | Tnf reporter intensity, replicate 1 | Tnf reporter intensity, replicate 2 | Call |
| --- | --- | --- | --- | --- | --- | --- |
| Bltp1 (GeneID 229227) | 1 | 0.73 | enough cells in well | 312 | 138 | inactive |
| Bltp1 (GeneID 229227) | 2 | 0.86 | enough cells in well | 277 | 82.7 | inactive |

The list goes on.
| gene | reagent no. | Tnf reporter robust z-score | fewer than 50 cells in well | Tnf reporter intensity, replicate 1 | Tnf reporter intensity, replicate 2 | Call |
| --- | --- | --- | --- | --- | --- | --- |
| Or8g28 (GeneID 258499) | 1 | 1.65 | enough cells in well | 210 | 226 | inactive |
| Rasgrp4 (GeneID 233046) | 1 | 0.08 | enough cells in well | 313 | 214 | inactive |
| Atp11b (GeneID 76295) | 1 | 0.21 | enough cells in well | 172 | 151 | inactive |
| Prodh2 (GeneID 56189) | 1 | 0.05 | enough cells in well | 257 | 189 | inactive |
| Atp13a4 (GeneID 224079) | 1 | -1.39 | enough cells in well | 72.9 | 124 | active |
| Or2w1 (GeneID 18341) | 1 | 0.44 | enough cells in well | 321 | 98.9 | inactive |
| Crtap (GeneID 56693) | 1 | -1.09 | enough cells in well | 84.9 | 145 | inactive |
| Ptpn4 (GeneID 19258) | 1 | -0.03 | enough cells in well | 239 | 194 | inactive |
| Sap18 (GeneID 20220) | 1 | -0.13 | enough cells in well | 302 | 192 | inactive |
| Hsd3b6 (GeneID 15497) | 1 | – | fewer than 50 cells per well; well left out of calls | 92 | 77.9 | inactive |
| Scrn1 (GeneID 69938) | 1 | -0.56 | enough cells in well | 103 | 104 | inactive |
